Measured values: patent US7019109B2 (The Salk Institute for Bilogical Studies, priority 2001, dated 2006)

Experiment: Boc solid-phase peptide synthesis; chloromethylated resin
Settings: whole synthesis, capillary zone electrophoresis

## (cyclo)H-Cys-Lys-Phe-Phe-D-Trp-IAmp-Thr-Tyr-Thr-Ser-Cys-OH
  final purity (method not given): greater than 98% pure

## (cyclo)H-Cys-Lys-Phe-Phe-D-Trp-N^αMeIAmp-Thr-Tyr-Thr-Ser-Cys-OH
  final purity (method not given): greater than 98% pure
